Measured values reported in article PMC7588595, “Small-molecule active pharmaceutical ingredients of approved cancer therapeutics inhibit human aspartate/asparagine-β-hydroxylase” (Bioorganic & Medicinal Chemistry, 2020).

Biological target: T1, human AspH (His6-AspH315–758) (Homo sapiens, UniProt Q12797)
T1 construct: N-Terminally His6-tagged human AspH315–758 (His6-AspH315–758) was produced in Escherichia coli BL21 (DE3) cells; made in house; host or cells: Escherichia coli BL21 (DE3), pET-28a(+) vector
T1 sequence (Q12797 315-758): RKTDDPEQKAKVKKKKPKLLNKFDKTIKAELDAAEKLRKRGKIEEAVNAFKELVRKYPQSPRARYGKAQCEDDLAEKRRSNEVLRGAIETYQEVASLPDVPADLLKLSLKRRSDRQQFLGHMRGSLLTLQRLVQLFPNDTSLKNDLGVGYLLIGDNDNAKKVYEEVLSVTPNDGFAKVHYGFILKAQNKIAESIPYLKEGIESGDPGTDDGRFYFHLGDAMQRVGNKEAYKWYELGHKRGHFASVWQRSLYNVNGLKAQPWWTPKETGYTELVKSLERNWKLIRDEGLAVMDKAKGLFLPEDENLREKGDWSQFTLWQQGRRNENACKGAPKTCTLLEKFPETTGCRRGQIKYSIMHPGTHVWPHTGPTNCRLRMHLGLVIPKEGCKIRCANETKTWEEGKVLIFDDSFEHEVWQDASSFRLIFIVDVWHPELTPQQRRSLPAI
Experiment: SPE-MS AspH inhibition assay (hFX-CP101-119 substrate hydroxylation)
Assay type: biochemical

CC[C@H](CO)Nc1nc(NCc2ccccc2)c2ncn(C(C)C)c2n1 [Roscovitine_Selicilib]
Plate 1 (% inhibition): 2.35%
Plate 1-duplicate (% inhibition): 3.78%
